Amino acid sequences for entries named in this document (tags omitted).
UniProt Q9Y572: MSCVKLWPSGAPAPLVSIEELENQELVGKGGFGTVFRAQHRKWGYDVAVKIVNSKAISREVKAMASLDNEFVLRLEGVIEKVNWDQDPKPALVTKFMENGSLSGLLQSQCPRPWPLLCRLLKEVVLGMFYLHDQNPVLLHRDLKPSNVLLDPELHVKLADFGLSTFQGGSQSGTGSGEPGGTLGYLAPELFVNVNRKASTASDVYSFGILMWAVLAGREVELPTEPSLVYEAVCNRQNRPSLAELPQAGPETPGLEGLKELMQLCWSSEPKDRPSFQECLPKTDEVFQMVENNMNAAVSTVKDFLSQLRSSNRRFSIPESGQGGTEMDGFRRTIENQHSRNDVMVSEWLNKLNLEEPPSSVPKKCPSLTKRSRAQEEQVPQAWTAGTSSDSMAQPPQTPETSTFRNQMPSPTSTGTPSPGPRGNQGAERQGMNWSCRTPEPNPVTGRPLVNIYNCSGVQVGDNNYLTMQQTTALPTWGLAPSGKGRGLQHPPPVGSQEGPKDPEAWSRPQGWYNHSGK
UniProt Q99873: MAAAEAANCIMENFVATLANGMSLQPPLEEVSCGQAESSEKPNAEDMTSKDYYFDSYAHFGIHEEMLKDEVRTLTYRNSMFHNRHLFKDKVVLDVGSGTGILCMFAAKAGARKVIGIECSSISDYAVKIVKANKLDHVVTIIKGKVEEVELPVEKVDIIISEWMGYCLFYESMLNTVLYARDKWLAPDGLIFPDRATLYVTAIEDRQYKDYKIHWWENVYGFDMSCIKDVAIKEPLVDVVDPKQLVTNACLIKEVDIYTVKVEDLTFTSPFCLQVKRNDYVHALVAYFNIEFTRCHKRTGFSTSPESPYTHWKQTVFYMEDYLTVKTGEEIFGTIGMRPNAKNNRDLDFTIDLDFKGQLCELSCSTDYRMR

In publication PMC10067857:

Target: RIP3, bait of the pull-down analysed by mass spectrum (not stated (human or mouse cDNA cloned)) (UniProt Q9Y572)
Assay: affinity purification with mass spectrometry; RIP3 interaction pull-down proteins analysed by mass spectrum; cells, bait and conditions not told

binding: binds
Substance: PRMT1 identified by mass spectrum in the RIP3 pull-down (from UniProt Q99873 1-371) (enzyme)

No constants are given. Whether binding was seen depends on the method and setting. In cells and extracts the contact can be indirect. A yes stands for co-enrichment or nearness to the bait. Other partners may have been found.
